Data from paper doi:10.1101/530402.
No constants are given. Whether binding was seen depends on the method and setting. In cells and extracts the contact can be indirect. Some entries that bind do so weakly or less than the wild type.

Sequences of proteins named here, by UniProt entry; tags and fusion partners are left off. Residues count along the entry.
UniProt O60603, 21-784: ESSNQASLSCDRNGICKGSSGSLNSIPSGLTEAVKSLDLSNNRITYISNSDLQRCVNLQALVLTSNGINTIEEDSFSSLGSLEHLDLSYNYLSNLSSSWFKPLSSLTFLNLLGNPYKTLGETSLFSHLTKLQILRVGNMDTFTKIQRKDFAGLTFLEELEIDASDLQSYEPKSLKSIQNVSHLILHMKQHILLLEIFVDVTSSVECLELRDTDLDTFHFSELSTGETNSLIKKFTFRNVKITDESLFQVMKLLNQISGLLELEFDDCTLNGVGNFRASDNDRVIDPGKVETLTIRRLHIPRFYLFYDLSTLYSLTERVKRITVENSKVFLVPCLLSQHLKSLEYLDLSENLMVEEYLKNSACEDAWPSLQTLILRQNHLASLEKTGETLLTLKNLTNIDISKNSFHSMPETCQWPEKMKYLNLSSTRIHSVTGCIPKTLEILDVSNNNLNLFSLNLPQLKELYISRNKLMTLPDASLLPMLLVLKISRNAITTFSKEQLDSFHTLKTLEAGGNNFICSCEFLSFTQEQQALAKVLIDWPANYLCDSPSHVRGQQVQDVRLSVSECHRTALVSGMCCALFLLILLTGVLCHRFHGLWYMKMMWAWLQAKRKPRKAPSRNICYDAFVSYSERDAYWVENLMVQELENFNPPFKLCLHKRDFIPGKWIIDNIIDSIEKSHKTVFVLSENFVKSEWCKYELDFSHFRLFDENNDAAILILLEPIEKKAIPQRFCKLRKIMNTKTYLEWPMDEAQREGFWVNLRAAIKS
UniProt P61163, whole entry: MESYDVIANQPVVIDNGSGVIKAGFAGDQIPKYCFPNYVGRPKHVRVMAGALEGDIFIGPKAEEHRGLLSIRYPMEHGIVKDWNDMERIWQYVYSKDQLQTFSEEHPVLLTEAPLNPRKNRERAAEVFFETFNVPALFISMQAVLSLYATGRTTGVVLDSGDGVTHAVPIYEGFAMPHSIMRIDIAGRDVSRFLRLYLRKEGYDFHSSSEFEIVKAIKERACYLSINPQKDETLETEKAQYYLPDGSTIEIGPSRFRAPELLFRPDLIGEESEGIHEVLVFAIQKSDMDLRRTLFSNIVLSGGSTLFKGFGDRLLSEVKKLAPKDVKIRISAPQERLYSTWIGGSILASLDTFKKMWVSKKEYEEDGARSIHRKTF

Experiments:
Experiment in all cases: co-IP
[1] = target: HA-tagged human Toll-like receptor 2 (human) (UniProt O60603)
[2] = target: alpha-centractin (human (endogenous in HEK293)) (UniProt P61163)
[3] = target: T1, myristoylated alanine-rich C kinase substrate-like protein 1 (human (endogenous in HEK293)) (UniProt P49006)
T1 sequence: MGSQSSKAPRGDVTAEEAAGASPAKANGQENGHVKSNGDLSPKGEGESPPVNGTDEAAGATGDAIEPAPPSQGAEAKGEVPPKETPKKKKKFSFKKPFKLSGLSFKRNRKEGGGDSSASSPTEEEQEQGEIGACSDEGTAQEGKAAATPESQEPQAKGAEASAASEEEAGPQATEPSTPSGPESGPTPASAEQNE

Row | Substance | binding [1] | binding [2] | binding [3]
1 | alpha-centractin (from UniProt P61163 1-376) | binds |  | 
2 | HA-tagged human Toll-like receptor 2 (from UniProt O60603 21-784) |  | binds | binds
